Test results taken from publication PMC5765355, “Phosphorylation of Pnut in the Early Stages of Drosophila Embryo Development Affects Association of the Septin Complex with the Membrane and Is Important for Viability” (G3: Genes|Genomes|Genetics, 2017).
Results are given in words; binding and its absence hold for the method and conditions named. For some of these results: In cells and extracts the contact can be indirect. Some entries that bind do so weakly or less than the wild type.

Chains of the proteins cited; added tags and fusions are not shown. Lines headed by an entry give the natural chain unless they say otherwise; changes in a name come on top.
UniProt P40797: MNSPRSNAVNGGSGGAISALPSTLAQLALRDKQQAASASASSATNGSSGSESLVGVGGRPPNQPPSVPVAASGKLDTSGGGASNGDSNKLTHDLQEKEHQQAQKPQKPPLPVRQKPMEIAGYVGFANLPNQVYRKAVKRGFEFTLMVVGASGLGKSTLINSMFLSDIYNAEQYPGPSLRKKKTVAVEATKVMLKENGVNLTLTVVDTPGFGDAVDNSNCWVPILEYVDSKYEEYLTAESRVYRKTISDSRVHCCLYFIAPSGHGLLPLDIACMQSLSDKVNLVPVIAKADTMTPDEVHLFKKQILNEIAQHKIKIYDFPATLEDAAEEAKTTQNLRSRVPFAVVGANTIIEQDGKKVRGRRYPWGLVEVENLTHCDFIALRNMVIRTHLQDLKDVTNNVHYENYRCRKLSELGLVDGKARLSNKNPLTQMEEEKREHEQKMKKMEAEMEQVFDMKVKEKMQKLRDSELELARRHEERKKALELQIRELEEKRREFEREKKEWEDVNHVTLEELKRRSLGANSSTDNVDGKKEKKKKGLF
UniProt P54359: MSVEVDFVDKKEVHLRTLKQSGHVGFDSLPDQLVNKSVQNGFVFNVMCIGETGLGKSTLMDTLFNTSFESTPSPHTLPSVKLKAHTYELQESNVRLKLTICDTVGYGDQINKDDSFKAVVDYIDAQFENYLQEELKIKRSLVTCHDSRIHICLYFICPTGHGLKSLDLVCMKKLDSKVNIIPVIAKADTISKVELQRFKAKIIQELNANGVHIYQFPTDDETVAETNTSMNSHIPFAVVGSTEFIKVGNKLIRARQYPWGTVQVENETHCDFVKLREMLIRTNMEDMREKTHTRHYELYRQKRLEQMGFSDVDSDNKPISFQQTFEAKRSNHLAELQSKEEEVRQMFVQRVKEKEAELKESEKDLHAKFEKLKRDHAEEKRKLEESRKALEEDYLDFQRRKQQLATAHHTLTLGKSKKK
UniProt P42207: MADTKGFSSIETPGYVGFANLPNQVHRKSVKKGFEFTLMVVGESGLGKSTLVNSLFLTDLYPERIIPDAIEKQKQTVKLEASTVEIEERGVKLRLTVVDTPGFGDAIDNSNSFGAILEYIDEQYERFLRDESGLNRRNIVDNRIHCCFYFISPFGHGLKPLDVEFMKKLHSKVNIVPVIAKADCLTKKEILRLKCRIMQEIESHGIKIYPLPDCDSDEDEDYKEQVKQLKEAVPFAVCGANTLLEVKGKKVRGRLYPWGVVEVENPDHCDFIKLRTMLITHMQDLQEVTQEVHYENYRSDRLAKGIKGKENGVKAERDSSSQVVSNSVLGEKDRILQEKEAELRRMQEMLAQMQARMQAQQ

Experiments:
[1] = biological target: T1, Orc6 (endogenous, embryo extract) (Drosophila melanogaster (endogenous in embryos)) (UniProt Q9Y1B2); experiment: co-IP; antibodies against Orc6 used to precipitate Pnut from Drosophila embryo extracts (Figure S4 in File S1)
T1 sequence: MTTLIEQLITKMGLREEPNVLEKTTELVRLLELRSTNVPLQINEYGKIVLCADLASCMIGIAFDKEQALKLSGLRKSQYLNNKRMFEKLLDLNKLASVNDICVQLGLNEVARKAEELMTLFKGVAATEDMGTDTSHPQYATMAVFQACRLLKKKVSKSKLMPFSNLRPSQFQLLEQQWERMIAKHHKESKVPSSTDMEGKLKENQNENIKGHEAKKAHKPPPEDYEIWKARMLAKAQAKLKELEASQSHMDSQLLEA

[2] = biological target: Recombinant septin complex carrying Pnut-T509A/S517A, (His–Pnut)–Sep2–Sep1–Sep1–Sep2–(His–Pnut) (Drosophila melanogaster) (UniProt P40797+P54359+P42207); experiment: negative-stain electron microscopy of filament formation; recombinant septin complexes 40 ng/µl in GTPase buffer (25 mM HEPES-KOH pH 7.6, 2 mM MgCl2, 1 mM EGTA) with 50 mM KCl, with or without Orc6 (40 ng/µl) and 400 µM GTP, 2 hr at 22°; hexamers to filaments; both purified
[3] = biological target: Recombinant wild-type septin complex (His–Pnut)–Sep2–Sep1–Sep1–Sep2–(His–Pnut) (Drosophila melanogaster) (UniProt P40797+P54359+P42207); experiment: as above

FLAG-tagged Pnut-T509A/S517A (FLAG-pnut-T509A/S517A transgene) (from UniProt P40797 1-539)
binding [1]: binds

FLAG-tagged Pnut-T509E/S517E (FLAG-pnut-T509E/S517E transgene) (from UniProt P40797 1-539)
binding [1]: binds

Recombinant septin complex carrying Pnut-T509A/S517A, (His–Pnut)–Sep2–Sep1–Sep1–Sep2–(His–Pnut) (from UniProt P40797 1-539; P54359 1-419; P42207 1-361)
binding [2]: binds

Recombinant wild-type septin complex (His–Pnut)–Sep2–Sep1–Sep1–Sep2–(His–Pnut) (from UniProt P40797 1-539; P54359 1-419; P42207 1-361)
binding [3]: binds
